The target of assay [1] is PBP1B variant that lacks the UB2H domain (PBP1BΔUB2H) (E. coli) (UniProt P02919). The assay can be described thus: cross-linking + co-IP; E. coli cells treated with DTSSP cross-linker in vivo; membrane fractions immunoprecipitated with LpoA or PBP1B antibodies and protein G-agarose; cross-link reverted with reducing agent; immunodetection of PBP1A or LpoB.
Assay [2] deals with C-terminal domain of LpoA (LpoA^C) (E. coli). The assay can be described thus: pull-down; affinity chromatography: E. coli membrane fraction applied in 400 mM NaCl to sepharose columns with immobilised protein, empty sepharose as control; washed, eluted with 2 M NaCl; SDS-PAGE, Western blot and immunodetection of Lpo proteins or PBPs; only the target purified. (In general: A western blot detects proteins with antibodies after separation by electrophoresis.)

Chains of the proteins cited; added tags and fusions are not shown. Lines headed by an entry give the natural chain unless they say otherwise; changes in a name come on top.
UniProt P02919: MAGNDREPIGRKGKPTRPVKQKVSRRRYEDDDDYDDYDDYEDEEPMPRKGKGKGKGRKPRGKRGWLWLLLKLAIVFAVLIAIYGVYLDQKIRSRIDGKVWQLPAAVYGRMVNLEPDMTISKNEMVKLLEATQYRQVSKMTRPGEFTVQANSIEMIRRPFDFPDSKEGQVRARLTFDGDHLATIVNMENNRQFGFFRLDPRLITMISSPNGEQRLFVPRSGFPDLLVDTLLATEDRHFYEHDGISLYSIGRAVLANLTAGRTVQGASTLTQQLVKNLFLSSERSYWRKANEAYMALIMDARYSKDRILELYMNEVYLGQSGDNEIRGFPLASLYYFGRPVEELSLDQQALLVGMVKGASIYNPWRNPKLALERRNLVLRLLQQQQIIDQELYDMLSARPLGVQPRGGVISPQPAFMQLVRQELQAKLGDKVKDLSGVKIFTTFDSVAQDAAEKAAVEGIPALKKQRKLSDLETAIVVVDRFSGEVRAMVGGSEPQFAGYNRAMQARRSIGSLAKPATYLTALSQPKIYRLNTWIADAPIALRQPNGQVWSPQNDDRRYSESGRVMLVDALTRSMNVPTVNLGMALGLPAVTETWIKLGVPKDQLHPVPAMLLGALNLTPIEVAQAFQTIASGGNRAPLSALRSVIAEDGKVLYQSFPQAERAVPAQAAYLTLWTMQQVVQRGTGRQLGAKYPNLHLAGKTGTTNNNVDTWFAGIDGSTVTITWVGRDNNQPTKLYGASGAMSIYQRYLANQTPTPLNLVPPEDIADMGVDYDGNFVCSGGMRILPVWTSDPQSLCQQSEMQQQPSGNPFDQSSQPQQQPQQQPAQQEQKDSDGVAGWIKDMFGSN

The results in this text go back to article PMC3060616.

No constants are given. Whether binding was seen depends on the method and setting. In cells and extracts the contact can be indirect. For some assays here: A result given as binding can be weak or reduced; the word gives no strength.

B1: LpoB (YcfM), endogenous (protein, UniProt P0AB38 20-213)
chain: CVGQREPAPVEEVKPAPEQPAEPQQPVPTVPSVPTIPQQPGPIEHEDQTAPPAPHIRHYDWNGAMQPMVSKMLGADGVTAGSVLLVDSVNNRTNGSLNAAEATETLRNALANNGKFTLVSAQQLSMAKQQLGLSPQDSLGTRSKAIGIARNVGAHYVLYSSASGNVNAPTLQMQLMLVQTGEIIWSGKGAVSQQ
With B1, in assay [1], the binding entry is “no binding”.

B2: PBP1A, endogenous (enzyme, UniProt P02918 1-850)
chain: MKFVKYFLILAVCCILLGAGSIYGLYRYIEPQLPDVATLKDVRLQIPMQIYSADGELIAQYGEKRRIPVTLDQIPPEMVKAFIATEDSRFYEHHGVDPVGIFRAASVALFSGHASQGASTITQQLARNFFLSPERTLMRKIKEVFLAIRIEQLLTKDEILELYLNKIYLGYRAYGVGAAAQVYFGKTVDQLTLNEMAVIAGLPKAPSTFNPLYSMDRAVARRNVVLSRMLDEGYITQQQFDQTRTEAINANYHAPEIAFSAPYLSEMVRQEMYNRYGESAYEDGYRIYTTITRKVQQAAQQAVRNNVLDYDMRHGYRGPANVLWKVGESAWDNNKITDTLKALPTYGPLLPAAVTSANPQQATAMLADGSTVALSMEGVRWARPYRSDTQQGPTPRKVTDVLQTGQQIWVRQVGDAWWLAQVPEVNSALVSINPQNGAVMALVGGFDFNQSKFNRATQALRQVGSNIKPFLYTAAMDKGLTLASMLNDVPISRWDASAGSDWQPKNSPPQYAGPIRLRQGLGQSKNVVMVRAMRAMGVDYAAEYLQRFGFPAQNIVHTESLALGSASFTPMQVARGYAVMANGGFLVDPWFISKIENDQGGVIFEAKPKVACPECDIPVIYGDTQKSNVLENNDVEDVAISREQQNVSVPMPQLEQANQALVAKTGAQEYAPHVINTPLAFLIKSALNTNIFGEPGWQGTGWRAGRDLQRRDIGGKTGTTNSSKDAWFSGYGPGVVTSVWIGFDDHRRNLGHTTASGAIKDQISGYEGGAKSAQPAWDAYMKAVLEGVPEQPLTPPPGIVTVNIDRSTGQLANGGNSREEYFIEGTQPTQQAVHEVGTTIIDNGEAQELF
Regarding B2, the binding result in assay [2] is given as “binds”.
